Results reported in the supplement of paper PMC10849652.
The other results are listed elsewhere or left out.

Amino acid sequences for entries named in this document (tags omitted). A change or cut given only in a name is not applied to a line headed by its entry.
UniProt Q8TCD5: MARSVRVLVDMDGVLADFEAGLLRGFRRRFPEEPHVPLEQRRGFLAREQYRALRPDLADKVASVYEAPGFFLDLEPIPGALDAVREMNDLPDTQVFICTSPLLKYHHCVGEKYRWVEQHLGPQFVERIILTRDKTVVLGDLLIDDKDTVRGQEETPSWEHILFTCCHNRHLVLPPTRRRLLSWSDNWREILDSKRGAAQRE
UniProt Q9Y5A7: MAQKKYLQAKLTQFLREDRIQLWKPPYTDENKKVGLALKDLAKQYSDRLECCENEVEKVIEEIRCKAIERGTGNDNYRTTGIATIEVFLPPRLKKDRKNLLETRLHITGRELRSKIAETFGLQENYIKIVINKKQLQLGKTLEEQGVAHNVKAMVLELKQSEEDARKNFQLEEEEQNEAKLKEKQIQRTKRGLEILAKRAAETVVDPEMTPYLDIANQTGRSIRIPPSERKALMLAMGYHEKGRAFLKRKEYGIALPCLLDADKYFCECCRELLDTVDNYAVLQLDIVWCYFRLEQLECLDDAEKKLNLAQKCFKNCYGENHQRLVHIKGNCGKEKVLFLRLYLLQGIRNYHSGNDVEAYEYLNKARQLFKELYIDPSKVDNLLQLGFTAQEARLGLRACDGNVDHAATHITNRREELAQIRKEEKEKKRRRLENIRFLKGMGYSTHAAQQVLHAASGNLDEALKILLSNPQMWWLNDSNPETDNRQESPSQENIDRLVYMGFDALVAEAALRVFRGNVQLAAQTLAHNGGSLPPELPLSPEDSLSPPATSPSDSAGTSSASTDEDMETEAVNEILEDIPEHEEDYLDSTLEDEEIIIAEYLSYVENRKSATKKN
UniProt Q8IVD9: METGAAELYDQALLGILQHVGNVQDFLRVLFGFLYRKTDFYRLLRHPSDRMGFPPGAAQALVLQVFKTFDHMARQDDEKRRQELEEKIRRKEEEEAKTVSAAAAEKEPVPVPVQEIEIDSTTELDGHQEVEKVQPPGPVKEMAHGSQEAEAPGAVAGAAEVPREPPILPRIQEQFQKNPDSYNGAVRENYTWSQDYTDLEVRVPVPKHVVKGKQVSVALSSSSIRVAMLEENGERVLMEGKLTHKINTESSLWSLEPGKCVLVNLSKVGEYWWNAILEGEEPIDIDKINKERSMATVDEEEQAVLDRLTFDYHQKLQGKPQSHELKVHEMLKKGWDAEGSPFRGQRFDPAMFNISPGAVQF
UniProt Q6PK18: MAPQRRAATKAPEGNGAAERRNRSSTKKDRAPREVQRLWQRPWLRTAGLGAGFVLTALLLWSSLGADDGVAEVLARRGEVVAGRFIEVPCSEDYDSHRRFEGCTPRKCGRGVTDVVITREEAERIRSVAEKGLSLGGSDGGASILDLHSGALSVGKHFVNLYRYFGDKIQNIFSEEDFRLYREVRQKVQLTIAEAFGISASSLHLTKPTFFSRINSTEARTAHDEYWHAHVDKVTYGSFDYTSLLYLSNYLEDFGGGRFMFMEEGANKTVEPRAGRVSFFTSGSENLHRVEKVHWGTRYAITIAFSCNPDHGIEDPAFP
UniProt P35658: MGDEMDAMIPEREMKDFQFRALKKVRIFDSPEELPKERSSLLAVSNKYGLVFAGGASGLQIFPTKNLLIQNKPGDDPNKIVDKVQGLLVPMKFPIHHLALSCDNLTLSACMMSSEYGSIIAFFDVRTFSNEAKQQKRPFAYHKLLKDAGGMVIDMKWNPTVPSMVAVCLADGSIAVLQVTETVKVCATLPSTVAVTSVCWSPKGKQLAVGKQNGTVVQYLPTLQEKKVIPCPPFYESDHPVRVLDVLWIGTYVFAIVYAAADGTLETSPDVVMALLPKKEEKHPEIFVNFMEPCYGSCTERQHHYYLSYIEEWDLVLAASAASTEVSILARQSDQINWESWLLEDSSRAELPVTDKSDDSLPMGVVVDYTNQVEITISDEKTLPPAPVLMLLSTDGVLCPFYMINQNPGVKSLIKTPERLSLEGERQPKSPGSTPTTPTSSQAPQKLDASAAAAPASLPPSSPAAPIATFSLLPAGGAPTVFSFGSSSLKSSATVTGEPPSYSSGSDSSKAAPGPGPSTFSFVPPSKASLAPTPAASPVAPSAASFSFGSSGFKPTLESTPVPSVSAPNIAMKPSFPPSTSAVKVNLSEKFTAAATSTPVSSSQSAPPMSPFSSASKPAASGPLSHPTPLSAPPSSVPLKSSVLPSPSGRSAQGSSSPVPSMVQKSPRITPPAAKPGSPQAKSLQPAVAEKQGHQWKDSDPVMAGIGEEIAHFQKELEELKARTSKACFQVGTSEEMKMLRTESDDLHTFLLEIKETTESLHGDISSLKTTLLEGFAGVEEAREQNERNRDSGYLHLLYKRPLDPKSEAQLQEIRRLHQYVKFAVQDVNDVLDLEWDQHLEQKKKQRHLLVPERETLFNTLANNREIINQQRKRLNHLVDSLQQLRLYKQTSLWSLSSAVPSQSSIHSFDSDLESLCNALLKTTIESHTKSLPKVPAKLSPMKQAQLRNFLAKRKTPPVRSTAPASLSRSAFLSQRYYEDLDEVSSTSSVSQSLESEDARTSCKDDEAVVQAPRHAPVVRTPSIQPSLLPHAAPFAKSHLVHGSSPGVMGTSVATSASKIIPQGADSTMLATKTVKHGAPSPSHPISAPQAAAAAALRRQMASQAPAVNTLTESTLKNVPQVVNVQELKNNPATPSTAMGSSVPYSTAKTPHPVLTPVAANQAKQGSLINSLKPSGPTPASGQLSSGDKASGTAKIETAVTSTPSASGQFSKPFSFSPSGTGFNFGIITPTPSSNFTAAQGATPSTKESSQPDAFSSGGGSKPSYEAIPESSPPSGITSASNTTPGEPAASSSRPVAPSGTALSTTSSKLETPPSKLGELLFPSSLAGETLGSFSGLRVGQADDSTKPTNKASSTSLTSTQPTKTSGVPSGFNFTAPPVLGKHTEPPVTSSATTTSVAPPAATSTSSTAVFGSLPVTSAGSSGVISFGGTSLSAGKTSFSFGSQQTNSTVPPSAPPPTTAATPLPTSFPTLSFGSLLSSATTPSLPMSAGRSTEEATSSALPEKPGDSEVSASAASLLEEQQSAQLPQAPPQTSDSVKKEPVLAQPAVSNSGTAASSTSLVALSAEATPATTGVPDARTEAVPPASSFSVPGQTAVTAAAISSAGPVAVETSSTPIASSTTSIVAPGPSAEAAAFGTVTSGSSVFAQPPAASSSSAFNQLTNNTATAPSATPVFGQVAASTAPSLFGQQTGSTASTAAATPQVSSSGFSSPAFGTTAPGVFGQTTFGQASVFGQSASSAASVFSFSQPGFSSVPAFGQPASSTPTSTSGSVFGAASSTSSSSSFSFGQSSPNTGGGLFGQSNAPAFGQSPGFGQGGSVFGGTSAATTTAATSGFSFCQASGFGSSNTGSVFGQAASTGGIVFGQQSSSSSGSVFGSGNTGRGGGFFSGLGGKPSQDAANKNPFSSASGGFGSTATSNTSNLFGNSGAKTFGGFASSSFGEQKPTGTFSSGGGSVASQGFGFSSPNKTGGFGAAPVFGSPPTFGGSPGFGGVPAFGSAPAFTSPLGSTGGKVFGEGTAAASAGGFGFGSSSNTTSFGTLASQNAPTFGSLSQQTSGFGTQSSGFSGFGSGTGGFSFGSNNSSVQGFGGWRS
UniProt Q96D31, whole entry, looked up: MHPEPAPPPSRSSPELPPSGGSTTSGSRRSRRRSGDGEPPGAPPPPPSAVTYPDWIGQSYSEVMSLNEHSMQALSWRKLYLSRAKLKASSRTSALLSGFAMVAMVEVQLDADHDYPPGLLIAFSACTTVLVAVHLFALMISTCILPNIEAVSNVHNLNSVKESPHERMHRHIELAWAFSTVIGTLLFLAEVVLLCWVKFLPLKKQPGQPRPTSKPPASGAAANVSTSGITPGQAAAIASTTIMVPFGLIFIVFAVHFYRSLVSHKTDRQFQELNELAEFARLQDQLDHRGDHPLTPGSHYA
UniProt Q5SWX8: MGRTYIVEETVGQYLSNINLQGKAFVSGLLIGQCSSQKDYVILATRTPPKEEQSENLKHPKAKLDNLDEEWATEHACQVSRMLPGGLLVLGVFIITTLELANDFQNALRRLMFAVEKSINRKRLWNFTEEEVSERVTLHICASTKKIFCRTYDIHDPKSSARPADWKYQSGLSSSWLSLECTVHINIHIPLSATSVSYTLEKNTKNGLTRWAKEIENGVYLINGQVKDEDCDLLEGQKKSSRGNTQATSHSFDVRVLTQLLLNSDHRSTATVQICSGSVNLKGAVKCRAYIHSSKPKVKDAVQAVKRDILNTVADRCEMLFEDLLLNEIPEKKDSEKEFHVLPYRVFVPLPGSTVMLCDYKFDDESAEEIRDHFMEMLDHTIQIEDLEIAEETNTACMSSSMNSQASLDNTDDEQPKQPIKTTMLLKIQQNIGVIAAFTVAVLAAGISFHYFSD
UniProt Q8WV74: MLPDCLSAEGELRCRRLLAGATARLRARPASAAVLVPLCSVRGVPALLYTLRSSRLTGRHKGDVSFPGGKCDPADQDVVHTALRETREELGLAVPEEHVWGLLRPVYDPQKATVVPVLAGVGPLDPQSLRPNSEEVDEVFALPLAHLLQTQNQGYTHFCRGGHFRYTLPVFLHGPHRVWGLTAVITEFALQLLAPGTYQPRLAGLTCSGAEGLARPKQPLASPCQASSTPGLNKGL
UniProt Q9Y5Y2: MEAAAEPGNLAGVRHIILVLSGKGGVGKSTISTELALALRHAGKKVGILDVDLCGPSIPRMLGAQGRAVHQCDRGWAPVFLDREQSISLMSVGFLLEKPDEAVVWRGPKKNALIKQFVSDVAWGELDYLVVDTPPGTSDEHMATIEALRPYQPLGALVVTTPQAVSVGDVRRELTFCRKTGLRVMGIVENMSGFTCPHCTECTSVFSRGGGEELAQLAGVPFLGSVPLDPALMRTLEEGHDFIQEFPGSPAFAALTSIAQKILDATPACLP
UniProt Q99567: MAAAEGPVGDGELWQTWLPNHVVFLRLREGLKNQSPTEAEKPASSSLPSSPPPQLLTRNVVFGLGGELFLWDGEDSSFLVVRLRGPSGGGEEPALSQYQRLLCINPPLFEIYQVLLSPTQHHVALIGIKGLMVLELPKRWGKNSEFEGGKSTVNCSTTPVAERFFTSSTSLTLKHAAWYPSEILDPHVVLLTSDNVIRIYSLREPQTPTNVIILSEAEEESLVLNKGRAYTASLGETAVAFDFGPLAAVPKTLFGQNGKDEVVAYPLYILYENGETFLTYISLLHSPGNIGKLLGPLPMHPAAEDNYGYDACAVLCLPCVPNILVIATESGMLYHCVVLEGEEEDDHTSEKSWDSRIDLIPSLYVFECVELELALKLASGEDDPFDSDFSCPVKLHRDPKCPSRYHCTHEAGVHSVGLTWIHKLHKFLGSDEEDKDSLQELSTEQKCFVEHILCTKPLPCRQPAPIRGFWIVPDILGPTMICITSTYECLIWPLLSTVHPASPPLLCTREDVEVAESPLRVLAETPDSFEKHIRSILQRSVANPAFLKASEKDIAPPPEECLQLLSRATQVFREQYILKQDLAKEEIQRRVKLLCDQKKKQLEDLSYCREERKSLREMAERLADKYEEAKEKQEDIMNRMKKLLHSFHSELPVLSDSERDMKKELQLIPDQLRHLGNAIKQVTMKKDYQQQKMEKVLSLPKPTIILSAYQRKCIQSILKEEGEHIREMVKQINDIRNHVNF
UniProt Q5BKU9: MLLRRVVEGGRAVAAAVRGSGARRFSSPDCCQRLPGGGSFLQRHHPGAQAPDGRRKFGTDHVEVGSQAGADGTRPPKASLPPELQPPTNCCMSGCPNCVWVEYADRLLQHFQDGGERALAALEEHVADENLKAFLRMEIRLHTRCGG
UniProt P00480: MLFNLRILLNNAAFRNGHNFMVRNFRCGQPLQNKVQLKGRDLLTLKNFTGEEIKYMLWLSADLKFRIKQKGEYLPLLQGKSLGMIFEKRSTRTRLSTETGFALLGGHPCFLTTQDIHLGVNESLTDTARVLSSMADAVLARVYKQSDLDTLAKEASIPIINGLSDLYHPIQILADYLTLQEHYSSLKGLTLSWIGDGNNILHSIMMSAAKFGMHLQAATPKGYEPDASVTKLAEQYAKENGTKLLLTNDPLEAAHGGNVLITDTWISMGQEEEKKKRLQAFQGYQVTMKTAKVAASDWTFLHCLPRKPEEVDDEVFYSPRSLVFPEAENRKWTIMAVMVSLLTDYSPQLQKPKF
UniProt Q9Y530: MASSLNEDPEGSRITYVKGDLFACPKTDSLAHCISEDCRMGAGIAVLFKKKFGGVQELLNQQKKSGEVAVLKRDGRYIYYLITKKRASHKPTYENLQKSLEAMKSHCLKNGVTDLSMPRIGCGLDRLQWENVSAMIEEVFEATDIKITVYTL
UniProt Q8NFH4: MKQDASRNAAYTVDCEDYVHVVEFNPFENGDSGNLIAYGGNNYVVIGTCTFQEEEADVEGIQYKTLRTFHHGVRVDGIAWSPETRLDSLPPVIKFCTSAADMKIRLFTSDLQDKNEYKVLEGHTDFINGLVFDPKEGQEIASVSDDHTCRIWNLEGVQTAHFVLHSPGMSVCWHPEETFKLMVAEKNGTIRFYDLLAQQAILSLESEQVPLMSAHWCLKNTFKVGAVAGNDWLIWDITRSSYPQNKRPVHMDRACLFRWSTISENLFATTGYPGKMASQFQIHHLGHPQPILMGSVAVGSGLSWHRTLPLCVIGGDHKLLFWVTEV

compound: c1cn2cc(-c3ccc4cn[nH]c4c3)nc(Nc3ccc(N4CCOCC4)cc3)c2n1 [entospletinib]; assay: log2 fold change, soluble protein after heating vs DMSO (PISA); higher = thermal stabilisation; K562 cells, 10 uM, 30 min; active = over 0.2 and 3.5 SD of the protein, either way, in both replicates (recomputed)
Summary of the method: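 K562 cells at 2×10^6 cells/mL were treated with 10 μM compound for 30 min. Aliquots were heated for 3 min across 48°C-58°C, pooled, and extracted in PBS with 0.5% NP-40 at 4°C; soluble protein was the supernatant after 21,000xg for 90 min. Soluble protein was quantified by TMTpro 16plex LC-MS/MS with channel sums equalised, and reported as log2 fold change in thermal stability against DMSO controls, with values from duplicates.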

log2 fold change, inactive:
NUP54 (UniProt Q7Z3B4) -0.038, NT5C (UniProt Q8TCD5) -0.005, NUB1 (UniProt Q9Y5A7) 0.056, NUDCD3 (UniProt Q8IVD9) 0.019, NUDT15 (UniProt Q9NV35) -0.033, OXCT1 (UniProt P55809) 0.05, OGFOD3 isoform 2 (UniProt Q6PK18) 0.112, NUP155 (UniProt O75694) -0.035, NUP214 isoform 5 (UniProt P35658) 0.099, OGT (UniProt O15294) 0.035, NSUN7 (UniProt Q8NE18) 0.099, OCIAD1 (UniProt Q9NX40) -0.034, NUP42 (UniProt O15504) 0.047, OCRL (UniProt Q01968) 0.114, ORAI1 (UniProt Q96D31) -0.15, ORMDL1 (UniProt Q9P0S3) -0.073, NUDT3 (UniProt O95989) -0.002, ODR4 (UniProt Q5SWX8) 0.015, NUDT8 (UniProt Q8WV74) 0.054, NUDCD1 (UniProt Q96RS6) -0.016, OBSCN (UniProt A6NGQ3) 0.068, NUP43 (UniProt Q8NFH3) -0.031, NUBP2 (UniProt Q9Y5Y2) -0.006, NUP88 (UniProt Q99567) 0.068, OXLD1 (UniProt Q5BKU9) 0.063, NTPCR (UniProt Q9BSD7) 0, OTC (UniProt P00480) 0.096, OARD1 (UniProt Q9Y530) 0.009, OPA3 (UniProt Q9H6K4) 0.035, NUP37 (UniProt Q8NFH4) 0.016, NUFIP2 (UniProt Q7Z417) 0.094
